# Laboratory results reported in patent US20190338038A1 (CELLERANT THERAPEUTICS, published 2019).
# Results are given in words; binding and its absence hold for the method and conditions named. Some binding calls cover weakened binding; strength is not graded here.
# T1: soluble IL1-RAP form (isoform 2) (human, UniProt Q9NPH3 21-350)
# T1 construct: Expressed in and purified from 293 cells; also called Q9NPH3-2; soluble form IL1RAP
# T1 sequence: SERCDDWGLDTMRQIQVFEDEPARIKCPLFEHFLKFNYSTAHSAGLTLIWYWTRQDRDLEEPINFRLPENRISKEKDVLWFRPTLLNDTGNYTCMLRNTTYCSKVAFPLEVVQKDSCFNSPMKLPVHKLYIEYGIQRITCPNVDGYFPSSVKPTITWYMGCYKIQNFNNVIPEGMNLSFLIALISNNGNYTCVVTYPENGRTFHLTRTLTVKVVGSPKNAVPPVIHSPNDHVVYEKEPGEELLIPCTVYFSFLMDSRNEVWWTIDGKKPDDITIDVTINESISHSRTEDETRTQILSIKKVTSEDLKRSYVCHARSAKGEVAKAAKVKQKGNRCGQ
# Legend:
# [1] = biological target: IL1-RAP (antigen of the kinetic measurements of Tables 5A and 5B) (human) (UniProt Q9NPH3); test: real-time binding trace with fitted curve; instrument, antigen and concentrations are not shown legibly
# [2] = biological target: human interleukin 1 receptor accessory protein, membrane-bound form on cells (human) (UniProt Q9NPH3); test: FACS titration on EOL-1 cells
# [3] = biological target: human interleukin 1 receptor accessory protein, membrane-bound form on cells (human) (UniProt Q9NPH3); test: FACS titration on HNT-34 cells in 50%, 25% or 12.5% normal human serum, with 1 ug/mL ECD of IL1-RAP, with 1 ug/mL soluble IL1-RAP, or in PBS
# [4] = biological target: his-tagged extracellular domain (ECD) of IL1-RAP (human) (UniProt Q9NPH3); test: ECD of IL1-RAP in solution inhibits the antibody's binding to HNT-34 cells, FACS
# [5] = biological target: human interleukin 1 receptor accessory protein, membrane-bound form on cells (human) (UniProt Q9NPH3); test: FACS titration on IL1-RAP transfected 293 cells
# [6] = biological target: human interleukin 1 receptor accessory protein, membrane-bound form on cells (human) (UniProt Q9NPH3); test: FACS titration on HNT-34 cells with normal human serum, soluble IL1-RAP or ECD of IL1-RAP
# [7] = biological target: T1, soluble IL1-RAP form (isoform 2); test: soluble IL1-RAP in solution inhibits the antibody's binding to HNT-34 cells, FACS
# [8] = biological target: human interleukin 1 receptor accessory protein, membrane-bound form on cells (human) (UniProt Q9NPH3); test: FACS titration on HNT-34 cells
# [9] = biological target: T1, soluble IL1-RAP form (isoform 2); test: sandwich ELISA: plate coated with goat anti-IL1RAP antibody, then soluble IL1-RAP, then 2H8
# Description: The extracellular domain of IL1-RAP (Q9NPH3-4) and soluble IL1-RAP form (Q9NPH3-2) were expressed and purified from 293 cells. Sandwich ELISA was performed. The binding data shown in FIGS. 3A and 3B supports the conclusion that clone 2H8 binds to membrane-bound IL1-RAP better compared to soluble IL1-RAP form.
# [10] = biological target: T1, soluble IL1-RAP form (isoform 2); test: sandwich ELISA with purified ECD of IL1-RAP and soluble IL1-RAP; the weaker of the two
binding [1],binding [2],Binder,also measured
binds,binds,"humanized clone of 54.9D7 hH2L3 (antibody, V domains shown, Humanized; also called 54.9D7 H2L3) VH: QVQLVQSGAEVKKPGASVKVSCKASGYIFITYWMNWVRQAPGQGLEWVGQIFPASGTTYYAQKFQGRVTMTVDTSTSTVYMELSSLRSEDTAVYYCARTDFYRYDGGYALDYWGQGTLVTVSS VL: DIQLTQSPSSLSASVGDRATITCRASQSVSTSGYSSMHWYQQKPGKAPKLLIKYASDLESGVPSRFSGSGSGTDFTLTISSVQPEDFATYYCHHSWGIPMYTFGQGTKLEIKR",
binds,binds,"humanized clone of 54.9D7 hH1L3 (antibody, V domains shown, Humanized; also called 54.9D7 H1L3) VH: QVQLVQSGAEVKKPGASVKVSCKASGYIFITYWMNWVRQAPGQGLEWMGQIFPASGTTYYAQKFQGRVTMTRDTSTSTVYMELSSLRSEDTAVYYCARTDFYRYDGGYALDYWGQGTLVTVSS VL: DIQLTQSPSSLSASVGDRATITCRASQSVSTSGYSSMHWYQQKPGKAPKLLIKYASDLESGVPSRFSGSGSGTDFTLTISSVQPEDFATYYCHHSWGIPMYTFGQGTKLEIKR",
binds,binds,"humanized clone of 54.9D7 hH3L3 (antibody, V domains shown, Humanized; also called 54.9D7 H3L3) VH: QVQLVQSGAEVKKPGASVKLSCKASGYIFITYWMNWVRQAPGQGLEWVGQIFPASGTTYYAQKFQGRATLTVDTSTSTAYMELSSLRSEDTAVYYCARTDFYRYDGGYALDYWGQGTLLTVSS VL: DIQLTQSPSSLSASVGDRATITCRASQSVSTSGYSSMHWYQQKPGKAPKLLIKYASDLESGVPSRFSGSGSGTDFTLTISSVQPEDFATYYCHHSWGIPMYTFGQGTKLEIKR",
,binds,"anti-IL1-RAP antibody clone 56.12G6 (antibody, V domains shown, Mouse monoclonal antibody) VH: RSNYSSLGAELVKPGASVTLSCEASGYTFTSYWIHWVKQRPGQGLEWIGEINPSHGHTTYNEKFKNKATLTVDKSSSTAYMQVSSLTSEDSAVYYCTRHYGSYYFDLWGQGTTLTVSS VL: QIVLTQSPAIMSAFPGEKVTMTCRASSSVSYMHWYRQKSGTFPKRWIYDTSKLASGVPARFSGSGSGTSYSLTISSMEAEDAATYYCQQWSTNPITFGAGTKLELK",binding [3]: binds; binding [4]: binds; binding [5]: binds; binding [6]: binds; binding [7]: binds; binding [8]: binds
,,"anti-IL1-RAP antibody clone 2H8 (antibody, V domains shown, Mouse monoclonal antibody; also called 2H8.3) VH: QIQLVQSGPELKKPGETVKISCKASGYTFTDYSMHWVKQAPGKGLKWMGWINTETGEPTYADDFKGRFAFSLETSASTAYLQINNLKNEDTATYFCARYYGYFDYWGQGTTLTVSS VL: DIVLTQSPASLAVSLGQRATISCRASESVDSYGNSFMHWYQQKPGQPPKLLIYRASNLESGIPARFSGSGSRTDFTLTINPVEADDVATYYCQQSNEDPWTFGGGTKLEIK",binding [9]: binds; binding [10]: binds
binds,binds,"chimeric 54.9D7 (antibody, V domains shown, Chimeric antibody; also called Chi54.9D7) VH: HVQLQQSGPELVRPGASVKLSCKASGYIFITYWMNWVKQRPGQGLEWVGQIFPASGTTYYNELFEGKATLTVDTSSNTAYMHLTSLTSEDSAVYYCARTDFYRYDGGYALDYWGQGTSLTVSS VL: DIVLTQSPISLAVFLGQRATISCRASQSVSTSGYSSMHWYQQKAGQPPKLLIKYASDLESGVPVRFSGSGSGTDFILNIHPVEVEDIATYYCHHSWGIPMYTFGGGTKLEIKR",
